This note sets out measurements from article PMC7396582.

Results are given in words; binding and its absence hold for the method and conditions named. In cells and extracts the contact can be indirect. These calls come from enrichment with a bait or labelling near it, and not all partners need be listed.

For this experiment, the target named is T1, M6a-loops (rat) (UniProt Q812E9).
T1 sequence (chain, biotin on the BAP (sec-BirA from the pBig plasmid)): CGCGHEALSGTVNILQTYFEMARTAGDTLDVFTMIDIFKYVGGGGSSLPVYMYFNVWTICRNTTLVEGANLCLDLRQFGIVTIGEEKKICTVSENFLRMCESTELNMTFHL
In words: affinity purification with mass spectrometry; M6a-loops (10-25 ug, from concentrated supernatant) held by anti-SV5-mAb cross-linked to protein A magnetic beads (1 h, room temperature); incubated with clarified pooled rat hippocampi extract (P14, P21, P30; 1% Triton X-100 in PBS; 200-350 ug) overnight at 4 C; washed three times with PBS-T; eluted in SDS buffer with DTT; TMT/MS; mock: M6a-loops with protein A beads without anti-SV5; three co-IPs with two replicates each.

B1: Syngr3 (protein, UniProt D4ABK1 1-319)
chain: MSPFPTLSYGGRASGKDQGGGAGLRPWRMDLVGGAGSAPPRAPPPQPTRAPGRRRQRQQHPQHQQPQHQPWEVSGRAGRWDKRTEGTGPAMEGASFGAGRAGAAFDPVSFAQRPQTLLRVVSWVFSIAVFGPIVNEGYVNSDSGPELRCVFNGNAGACRFGVVLGLGAFIACVAFLLLDVRFQQISSVRDRRRAVLLDLGFSGVWSFLWFVGFCFLTNQWQRTAPGPGTAQAGDAARAAIAFSFFSILSWVALTVKALQRFRLGTDMSLFATDQLGTGAAQAYPGYPVGSGVEGTETYQSPPFTETLDTSPKGYQVPAY
Regarding B1, the binding entry is “binds”.

B2: proteolipid protein (protein, UniProt P60203 1-277)
chain: MGLLECCARCLVGAPFASLVATGLCFFGVALFCGCGHEALTGTEKLIETYFSKNYQDYEYLINVIHAFQYVIYGTASFFFLYGALLLAEGFYTTGAVRQIFGDYKTTICGKGLSATVTGGQKGRGSRGQHQAHSLERVCHCLGKWLGHPDKFVGITYALTVVWLLVFACSAVPVYIYFNTWTTCQSIAFPSKTSASIGSLCADARMYGVLPWNAFPGKVCGSNLLSICKTAEFQMTFHLFIAAFVGAAATLVSLLTFMIAATYNFAVLKLMGRGTKF
Take B2: the binding entry is “binds”.

B3: Cnp (protein, UniProt P13233 1-420)
chain: MSTSFARKSHTFLPKIFFRKMSSSGAKDKPELQFPFLQDEDTVATLHECKTLFILRGLPGSGKSTLARLIVEKYHNGTKMVSADAYKIIPGSRADFSEEYKRLDEDLAGYCRRDIRVLVLDDTNHERERLDQLFEMADQYQYQVVLVEPKTAWRLDCAQLKEKNQWQLSLDDLKKLKPGLEKDFLPLYFGWFLTKKSSETLRKAGQVFLEELGNHKAFKKELRHFISGDEPKEKLDLVSYFGKRPPGVLHCTTKFCDYGKATGAEEYAQQDVVRRSYGKAFKLSISALFVTPKTAGAQVVLNEQELQLWPSDLDKPSSSESLPPGSRAHVTLGCAADVQPVQTGLDLLEILQQVKGGSQGEEVGELPRGKLYSLGKGRWMLSLAKKMEVKAIFTGYYGKGKPVPVHGSRKGGAMQICTII
Take B3: the binding result is “binds”.

B4: Vapa (protein, UniProt Q9Z270 1-249)
chain: MASASGAMAKHEQILVLDPPSDLKFKGPFTDVVTTNLKLQNPSDRKVCFKVKTTAPRRYCVRPNSGVIDPGSIVTVSVMLQPFDYDPNEKSKHKFMVQTIFAPPNISDMEAVWKEAKPDELMDSKLRCVFEMPNENDKLNDMEPSKAVPLNASKQDGPLPKPHSVSLNDTETRKLMEECKRLQGEMMKLSEENRHLRDEGLRLRKVAHSDKPGSTSAVSFRDNVTSPLPSLLVVIAAIFIGFFLGKFIL
In the case of B4, the binding entry is listed as “binds”.

B5: Cntnap1 (protein, UniProt P97846 21-1381)
chain: WGYYGCNEELVGPLYARSLGASSYYGLFTTARFARLHGISGWSPRIGDPNPWLQIDLMKKHRIRAVATQGAFNSWDWVTRYMLLYGDRVDSWTPFYQQGHNATFFGNVNDSAVVRHDLHYHFTARYIRIVPLAWNPRGKIGLRLGIYGCPYTSNILYFDGDDAISYRFQRGASQSLWDVFAFSFKTEEKDGLLLHTEGSQGDYVTLELQGAHLLLHMSLGSSPIQPRPGHTTVSAGGVLNDLSWHYVRVDRYGREANLTLDGYVHRFVLNGDFERLNLENEIFIGGLVGAARKNLAYRHNFRGCIENVIYNRINIAEMAVQRHSRITFEGNVAFRCLDPVPHPINFGGPHNFVQVPGFPRRGRLAVSFRFRTWDLTGLLLFSRLGDGLGHVELMLSEGQVNVSIAQTGRKKLQFAAGYRLNDGFWHEVNFVAQENHAVISIDDVEGAEVRVSYPLLIRTGTSYFFGGCPKPASRWGCHSNQTAFHGCMELLKVDGQLVNLTLVEFRKLGYFAEVLFDTCGITDRCSPNMCEHDGRCYQSWDDFICYCELTGYKGVTCHEPLYKESCEAYRLSGKYSGNYTIDPDGSGPLKPFVVYCDIRENRAWTVVRHDRLWTTRVTGSSMDRPFLGAIQYWNASWEEVSALANASQHCEQWIEFSCYNSRLLNTAGGYPYSFWIGRNEEQHFYWGGSQPGIQRCACGLDQSCIDPALHCNCDADQPQWRTDKGLLTFVDHLPVTQVVIGDTNRSSSEAQFFLRPLRCYGDRNSWNTISFRTGAALRFPPIRANHSLDVSFYFRTSAPSGVFLENMGGPFCQWRRPYVRVELNTSRDVVFAFDIGNGDENLTVHSDDFEFNDDEWHLVRAEINVKQARLRVDHRPWVLRPMPLQTYIWLEYDQPLYVGSAELKRRPFVGCLRAMRLNGVTLNLEGRANASEGTFPNCTGHCTHPRFPCFHGGRCVERYSYYTCDCDLTAFDGPYCNHDIGGFFETGTWMRYNLQSALRSAAQEFSHMLSRPVPGYEPGYIPGYDTPGYVPGYHGPGYRLPDYPRPGRPVPGYRGPVYNVTGEEVSFSFSTSSAPAVLLYVSSFVRDYMAVLIKEDGTLQLRYQLGTSPYVYQLTTRPVTDGQPHSVNITRVYRNLFIQVDYFPLTEQKFSLLVDSQLDSPKALYLGRVMETGVIDPEIQRYNTPGFSGCLSGVRFNNVAPLKTHFRTPRPMTAELAEAMRVQGELSESNCGAMPRLVSEVPPELDPWYLPPDFPYYHDDGWIAILLGFLVAFLLLGLVGMLVLFYLQNHRYKGSYHTNEPKATHDSHPGGKAPLPPSGPAQAPAPTPAPTQVPTPAPAPASGPGPRDQNLPQILEESRSE
Consider B5, for which the binding entry is given as “binds”.

B6: Mog (protein, UniProt Q63345 28-245)
chain: GQFRVIGPGHPIRALVGDEAELPCRISPGKNATGMEVGWYRSPFSRVVHLYRNGKDQDAEQAPEYRGRTELLKESIGEGKVALRIQNVRFSDEGGYTCFFRDHSYQEEAAVELKVEDPFYWINPGVLALIALVPMLLLQVSVGLVFLFLQHRLRGKLRAEVENLHRTFDPHFLRVPCWKITLFVIVPVLGPLVALIICYNWLHRRLAGQFLEELRNPF
For the molecule B6, the binding result is on record as “binds”.

B7: Cntn1 (protein, UniProt Q63198 21-1001)
chain: EFTWHRRYGHGVSEEDKGFGPIFEEQPINTIYPEESLEGKVSLNCRARASPFPVYKWRMNNGDVDLTNDRYSMVGGNLVINNPDKQKDAGIYYCLASNNYGMVRSTEATLSFGYLDPFPPEDRPEVKVKEGKGMVLLCDPPYHFPDDLSYRWLLNEFPVFITMDKRRFVSQTNGNLYIANVESSDRGNYSCFVSSPSITKSVFSKFIPLIPIPERTTKPYPADIVVQFKDIYTMMGQNVTLECFALGNPVPDIRWRKVLEPMPTTAEISTSGAVLKIFNIQLEDEGLYECEAENIRGKDKHQARIYVQAFPEWVEHINDTEVDIGSDLYWPCVATGKPIPTIRWLKNGYAYHKGELRLYDVTFENAGMYQCIAENAYGTIYANAELKILALAPTFEMNPMKKKILAAKGGRVIIECKPKAAPKPKFSWSKGTEWLVNSSRILIWEDGSLEINNITRNDGGIYTCFAENNRGKANSTGTLVITNPTRIILAPINADITVGENATMQCAASFDPSLDLTFVWSFNGYVIDFNKEITNIHYQRNFMLDANGELLIRNAQLKHAGRYTCTAQTIVDNSSASADLVVRGPPGPPGGLRIEDIRATSVALTWSRGSDNHSPISKYTIQTKTILSDDWKDAKTDPPIIEGNMESAKAVDLIPWMEYEFRVVATNTLGTGEPSIPSNRIKTDGAAPNVAPSDVGGGGGTNRELTITWAPLSREYHYGNNFGYIVAFKPFDGEEWKKVTVTNPDTGRYVHKDETMTPSTAFQVKVKAFNNKGDGPYSLIAVINSAQDAPSEAPTEVGVKVLSSSEISVHWKHVLEKIVESYQIRYWAGHDKEAAAHRVQVTSQEYSARLENLLPDTQYFIEVGACNSAGCGPSSDVIETFTRKAPPSQPPRIISSVRSGSRYIITWDHVVALSNESTVTGYKILYRPDGQHDGKLFSTHKHSIEVPIPRDGEYVVEVRAHSDGGDGVVSQVKISGVSTLS
Turning to B7, the binding entry is “binds”.

B8: Scamp5 (protein, UniProt Q9JKE3 1-235)
chain: MAEKVNNFPPLPKFIPLKPCFYQDFEADIPPQHLSLTKRLYYLWMLNSVTLAVNLVGCLAWLIGGGGATNFGLAFLWLILFTPCSYVCWFRPIYKAFKTDSSFSFMAFFFTFMAQLVISIIQAVGIPGWGVCGWIATISFFGTNIGSAVVMLIPTVMFTVVAVFSFIALSMVHKFYRGSGGSFSKAQEEWTTGAWKNPHVQQAAQNAAMGAAQGAMNQPQTQYSTTPNYTYSNEM
On to B8, for which the binding entry is reported as “binds”.

B9: Thy1 (protein, UniProt P01830 20-130)
chain: QRVISLTACLVNQNLRLDCRHENNTNLPIQHEFSLTREKKKHVLSGTLGVPEHTYRSRVNLFSDRFIKVLTLANFTTKDEGDYMCELRVSGQNPTSSNKTINVIRDKLVKC
As to B9, the binding entry was “binds”.

B10: Nckap1 (protein, UniProt P55161 1-1128)
chain: MSRSVLQPSQQKLAEKLTILNDRGVGMLTRLYNIKKACGDPKAKPSYLIDKNLESAVKFIVRKFPAVETRNNNQQLAQLQKEKSEILKNLALYYFTFVDVMEFKDHVCDLLNTIDVCQVFFDITVNFDLTKNYLDLTVTYTTLMILLSRIEERKAIIGLYNYAHEMTHGASDREYPRLGQMIVDYEHPLKKMMEEFVPHSKSLSDALISLQMVYPRRNLSADQWRNAQLLSLISAPSTMLNPAQSDTMPCEYLSLDAMEKWIIFGFILCHGMLNTEATALNLWKLALQSSSCLSLFRDEVFHIHKAAEDLFVNIRGYNKRINDIRECKEAAVSHAGSMHRERRKFLRSALKELATVLSDQPGLLGPKALFVFMALSFARDEIIWLLRHADNMPKKSADDFIDKHIAELIFYMEELRAHVRKYGPVMQRYYVQYLSGFDAVVLNELVQNLSVCPEDESIIMSSFVNTMTSLSVKQVEDGEVFDFRGMRLDWFRLQAYTSVSKASLSLADHRELGKMMNTIIFHTKMVDSLVEMLVETSDLSIFCFYSRAFEKMFQQCLELPSQSRYSIAFPLLCTHFMSCTHELCPEERHHIGDRSLSLCNMFLDEMAKQARNLITDICTEQCTLSDQLLPKHCAKTISQAVNKKSKKQTGKKGEPEREKPGVESMRKNRLVVTNLDKLHTALSELCFSINYVPNMAVWEHTFTPREYLTSHLEIRFTKSIVGMTMYNQATQEIAKPSELLTSVREYMTVLQSIENYVQIDITRVFNNVLLQQTQHLDSHGEPTITSLYTNWYLETLLRQVSNGHIAYFPAMKAFVNLPTENELTFNAEEYSDISEMRSLSELLGPYGMKFLSESLMWHISSQVAELKKLVVENVDVLTQMRTSFDKPDQMAALFKRLSSVDSVLKRMTIIGVILSFRSLAQEALRDVLSYHIPFLVSSIEDFKDHIPRETDMKVAMNVYELSSAAGLPCEIDPALVVALSSQKSENISPEEEYKIACLLMVFVAVSLPTLASNVMSQYSPAIEGHCNNIHCLAKAINQIAAALFTIHKGSIEDRLKEFLALASSSLLKIGQETDKTTTRNRESVYLLLDMIVQESPFLTMDLLESCFPYVLLRNAYHAVYKQSVTSSA
On to B10, for which the binding entry is “binds”.
